The target in the assay is p27^Kip1–GST (UniProt P46527). Description: pull-down; p27^Kip1–GST held on glutathione resin, incubated with purified β1–His6 (wild type or mutant) for 4 h at 4°C; blots with anti-β1/His6 antibodies; both purified.

Protein sequences, listed by entry. Tags and fused reporters are not part of them. Lines headed by an entry give the natural chain unless they say otherwise; changes in a name come on top.
UniProt P46527: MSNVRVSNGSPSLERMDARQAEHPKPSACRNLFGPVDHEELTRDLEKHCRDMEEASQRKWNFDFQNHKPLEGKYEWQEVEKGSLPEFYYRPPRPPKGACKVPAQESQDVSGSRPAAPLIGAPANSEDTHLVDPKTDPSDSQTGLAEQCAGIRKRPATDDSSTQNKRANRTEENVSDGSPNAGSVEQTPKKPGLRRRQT
UniProt P28072: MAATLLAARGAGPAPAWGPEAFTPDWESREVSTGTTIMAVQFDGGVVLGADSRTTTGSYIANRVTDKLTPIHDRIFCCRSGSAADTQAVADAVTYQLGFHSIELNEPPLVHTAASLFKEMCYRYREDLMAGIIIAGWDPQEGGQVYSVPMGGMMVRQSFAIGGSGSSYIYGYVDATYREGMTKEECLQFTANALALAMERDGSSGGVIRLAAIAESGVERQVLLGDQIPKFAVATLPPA

Results are given in words; binding and its absence hold for the method and conditions named. Binding calls can cover weak binding; strength is not graded here.

As for “β1–His6 (full-length β1, wild type) (from UniProt P28072) (enzyme)”, the binding entry is recorded as “binds”.

On to “β1–His6 S158A (from UniProt P28072) (enzyme)”, for which the binding result is “binds”.

These data come from paper PMC3712487.
